Reference: publication PMC8033513
These are yes or no findings as the source states them, for the method shown. Some entries that bind do so weakly or less than the wild type.

Sequences of proteins named here, by UniProt entry; tags and fusion partners are left off. Residues count along the entry.
UniProt P97798, residues 37-1136: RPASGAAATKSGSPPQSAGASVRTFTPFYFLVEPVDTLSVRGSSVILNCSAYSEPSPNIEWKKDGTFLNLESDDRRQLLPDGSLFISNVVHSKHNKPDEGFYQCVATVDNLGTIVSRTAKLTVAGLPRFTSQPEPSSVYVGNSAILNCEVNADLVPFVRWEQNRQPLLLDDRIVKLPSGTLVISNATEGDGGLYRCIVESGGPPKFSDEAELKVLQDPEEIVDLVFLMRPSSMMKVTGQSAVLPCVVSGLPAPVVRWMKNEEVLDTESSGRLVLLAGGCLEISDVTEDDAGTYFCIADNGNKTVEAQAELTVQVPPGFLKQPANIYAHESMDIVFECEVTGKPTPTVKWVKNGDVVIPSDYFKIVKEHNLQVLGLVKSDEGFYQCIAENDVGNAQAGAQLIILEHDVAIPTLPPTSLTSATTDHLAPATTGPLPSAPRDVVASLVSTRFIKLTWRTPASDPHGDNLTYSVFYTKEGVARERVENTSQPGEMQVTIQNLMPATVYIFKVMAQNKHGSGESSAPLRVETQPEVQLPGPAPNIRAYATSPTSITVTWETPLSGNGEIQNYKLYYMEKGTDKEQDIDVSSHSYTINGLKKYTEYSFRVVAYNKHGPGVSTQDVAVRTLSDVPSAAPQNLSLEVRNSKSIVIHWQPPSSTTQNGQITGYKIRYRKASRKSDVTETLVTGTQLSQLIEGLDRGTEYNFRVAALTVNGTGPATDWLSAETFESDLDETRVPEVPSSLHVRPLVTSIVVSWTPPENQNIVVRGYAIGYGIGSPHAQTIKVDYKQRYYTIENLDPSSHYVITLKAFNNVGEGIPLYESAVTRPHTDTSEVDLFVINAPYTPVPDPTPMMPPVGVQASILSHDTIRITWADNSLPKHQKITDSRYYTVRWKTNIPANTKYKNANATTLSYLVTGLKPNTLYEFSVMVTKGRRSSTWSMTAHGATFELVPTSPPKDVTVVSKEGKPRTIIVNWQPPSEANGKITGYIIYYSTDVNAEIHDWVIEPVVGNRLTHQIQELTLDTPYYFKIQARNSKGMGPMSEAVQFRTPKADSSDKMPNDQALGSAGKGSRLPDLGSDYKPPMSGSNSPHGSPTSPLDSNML
UniProt Q90923, residues 16-581: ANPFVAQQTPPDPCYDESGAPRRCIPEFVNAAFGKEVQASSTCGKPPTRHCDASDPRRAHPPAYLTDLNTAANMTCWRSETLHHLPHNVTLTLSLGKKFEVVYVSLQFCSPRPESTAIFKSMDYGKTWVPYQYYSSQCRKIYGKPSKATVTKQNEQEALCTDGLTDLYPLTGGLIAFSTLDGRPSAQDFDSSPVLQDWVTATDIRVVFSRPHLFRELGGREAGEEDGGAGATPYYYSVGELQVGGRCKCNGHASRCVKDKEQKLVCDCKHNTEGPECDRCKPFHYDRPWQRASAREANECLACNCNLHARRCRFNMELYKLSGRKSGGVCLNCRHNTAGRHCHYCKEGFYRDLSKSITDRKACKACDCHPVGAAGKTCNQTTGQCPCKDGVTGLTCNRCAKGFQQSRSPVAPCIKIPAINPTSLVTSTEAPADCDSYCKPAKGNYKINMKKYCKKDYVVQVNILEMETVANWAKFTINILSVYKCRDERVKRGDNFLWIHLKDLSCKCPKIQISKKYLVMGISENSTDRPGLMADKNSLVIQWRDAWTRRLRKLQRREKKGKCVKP

Biological target: extra‐cellular domain (ECD) of mouse Neogenin (mouse) (UniProt P97798)
Assay: BLI; OctetRED96; ECDs of mNeogenin or mDCC coated on AHC biosensors, hNetrin-1 or chNetrin-2 in solution at 3.12-100 nM; 30°C, PBS, 0.02% Tween-20, 0.1% BSA with 1 µg/ml Dextran 5,000; 1:1 binding model; both purified

**Q.** Which binding does the source give for “chicken netrin‐2L (netrin‐2‐like) (from UniProt Q90923 16-581) (ligand)” here?
**A.** Its binding is “binds”.
